Source: PMC11884560
Results are given in words; binding and its absence hold for the method and conditions named. Some binding calls cover weakened binding; strength is not graded here. Tags and fused reporters may be left off the sequences shown.

Sequences of proteins named here, by UniProt entry; tags and fusion partners are left off. Residues count along the entry.
UniProt Q14126, residues 50-609: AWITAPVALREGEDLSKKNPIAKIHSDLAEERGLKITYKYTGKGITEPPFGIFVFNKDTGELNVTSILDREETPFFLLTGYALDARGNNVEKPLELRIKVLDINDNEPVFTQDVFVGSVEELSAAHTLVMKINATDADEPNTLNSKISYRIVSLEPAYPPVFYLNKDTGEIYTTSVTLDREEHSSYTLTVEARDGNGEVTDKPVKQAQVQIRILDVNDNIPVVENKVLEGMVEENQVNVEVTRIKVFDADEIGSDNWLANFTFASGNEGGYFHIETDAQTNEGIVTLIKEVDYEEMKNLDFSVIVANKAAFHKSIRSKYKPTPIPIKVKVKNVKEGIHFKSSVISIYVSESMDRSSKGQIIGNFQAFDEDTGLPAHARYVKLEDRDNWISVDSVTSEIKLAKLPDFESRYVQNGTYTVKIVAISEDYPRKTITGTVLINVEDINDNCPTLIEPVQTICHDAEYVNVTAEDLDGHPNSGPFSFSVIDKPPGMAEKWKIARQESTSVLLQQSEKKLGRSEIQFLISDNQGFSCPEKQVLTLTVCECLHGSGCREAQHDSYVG

Biological target: purified extracellular domains of DSG2 (UniProt Q14126)
Assay: ELISA; direct ELISA: purified DSG2‐ECD or 5Q‐ECD immobilised on a 96‐well plate, S9Fc in solution, detected with HRP‐conjugated anti‐IgG; both purified

B1: Siglec‐9‐Fc (Fc fusion, UniProt Q9Y336 18-348)
chain: QTSKLLTMQSSVTVQEGLCVHVPCSFSYPSHGWIYPGPVVHGYWFREGANTDQDAPVATNNPARAVWEETRDRFHLLGDPHTKNCTLSIRDARRSDAGRYFFRMEKGSIKWNYKHHRLSVNVTALTHRPNILIPGTLESGCPQNLTCSVPWACEQGTPPMISWIGTSVSPLDPSTTRSSVLTLIPQPQDHGTSLTCQVTFPGASVTTNKTVHLNVSYPPQNLTMTVFQGDGTVSTVLGNGSSLSLPEGQSLRLVCAVDAVDSNPPARLSLSWRGLTLCPSQPSNPGVLELPWVHLRDAAEFTCRAQNPLGSQQVYLNVSLQSKATSGVTQGGSGGGGS
For B1, the binding was “binds”.
